No constants are given. Whether binding was seen depends on the method and setting. Binding calls can cover weak binding; strength is not graded here. For some of these results: In cells and extracts the contact can be indirect. For some of these results: Tags and fused reporters may be left off the sequences shown.

For 3 molecules, binding results are on record in PMC4557272.

In assay [1] the target is T1, SAPK8, yeast two-hybrid bait in pGBKT7 (rice (Oryza sativa)) (UniProt Q7Y0B9).
T1 sequence: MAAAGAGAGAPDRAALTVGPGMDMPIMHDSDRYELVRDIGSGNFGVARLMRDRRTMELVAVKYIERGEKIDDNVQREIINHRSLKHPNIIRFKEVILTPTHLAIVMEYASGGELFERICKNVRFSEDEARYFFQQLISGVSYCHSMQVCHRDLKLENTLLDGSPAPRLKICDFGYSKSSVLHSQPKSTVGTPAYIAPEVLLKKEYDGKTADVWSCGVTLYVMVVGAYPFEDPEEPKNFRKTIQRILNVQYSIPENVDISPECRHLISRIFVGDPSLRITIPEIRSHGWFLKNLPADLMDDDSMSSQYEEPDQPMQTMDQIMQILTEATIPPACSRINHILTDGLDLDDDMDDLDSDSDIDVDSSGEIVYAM
Briefly: two-hybrid; TE as prey in pGADT7, SAPKs as bait in pGBKT7, yeast strain AH109.

In assay [2] the target is T2, SAPK10, yeast two-hybrid bait in pGBKT7 (rice (Oryza sativa)) (UniProt Q75H77).
T2 sequence: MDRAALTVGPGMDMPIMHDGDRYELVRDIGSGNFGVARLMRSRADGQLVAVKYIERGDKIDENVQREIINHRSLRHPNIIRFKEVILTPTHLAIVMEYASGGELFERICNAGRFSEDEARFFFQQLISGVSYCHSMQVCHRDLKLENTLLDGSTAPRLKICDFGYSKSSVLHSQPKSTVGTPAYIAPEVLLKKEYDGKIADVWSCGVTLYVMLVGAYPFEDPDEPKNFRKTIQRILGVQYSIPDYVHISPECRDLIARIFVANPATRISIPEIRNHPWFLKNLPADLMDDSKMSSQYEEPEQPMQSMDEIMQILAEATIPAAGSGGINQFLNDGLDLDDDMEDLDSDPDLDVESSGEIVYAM
The assay is described as above.

Assay [3] concerns the target Tiller Enhancer (TE), BiFC fusion TE-eYNE (rice (Oryza sativa)). Briefly: split reporter; BiFC (eYFP halves) in N. benthamiana leaf epidermis cells, co-infiltrated with p19 and an ER marker; observed 48-72 h after infiltration by confocal microscopy.

With “TE, yeast two-hybrid prey in pGADT7 (rice (Oryza sativa))”, the binding result in assay [1] and in assay [2] was “binds” throughout.

B1: SAPK10, BiFC fusion in pSPYCE(M) (eYCE) (enzyme, UniProt Q75H77 1-362)
chain: T2 sequence
For the molecule B1, in assay [3], the binding entry was “binds”.

B2: SAPK8, BiFC fusion in pSPYCE(M) (eYCE) (enzyme, UniProt Q7Y0B9 1-371)
chain: T1 sequence
Consider B2, for which the binding entry in assay [3] is reported as “binds”.
